Source: article PMC11426234
Results are given in words; binding and its absence hold for the method and conditions named. In cells and extracts the contact can be indirect. Some entries that bind do so weakly or less than the wild type.

Chains of the proteins cited; added tags and fusions are not shown. Residues count along the entry.
UniProt P29317, residues 24-976: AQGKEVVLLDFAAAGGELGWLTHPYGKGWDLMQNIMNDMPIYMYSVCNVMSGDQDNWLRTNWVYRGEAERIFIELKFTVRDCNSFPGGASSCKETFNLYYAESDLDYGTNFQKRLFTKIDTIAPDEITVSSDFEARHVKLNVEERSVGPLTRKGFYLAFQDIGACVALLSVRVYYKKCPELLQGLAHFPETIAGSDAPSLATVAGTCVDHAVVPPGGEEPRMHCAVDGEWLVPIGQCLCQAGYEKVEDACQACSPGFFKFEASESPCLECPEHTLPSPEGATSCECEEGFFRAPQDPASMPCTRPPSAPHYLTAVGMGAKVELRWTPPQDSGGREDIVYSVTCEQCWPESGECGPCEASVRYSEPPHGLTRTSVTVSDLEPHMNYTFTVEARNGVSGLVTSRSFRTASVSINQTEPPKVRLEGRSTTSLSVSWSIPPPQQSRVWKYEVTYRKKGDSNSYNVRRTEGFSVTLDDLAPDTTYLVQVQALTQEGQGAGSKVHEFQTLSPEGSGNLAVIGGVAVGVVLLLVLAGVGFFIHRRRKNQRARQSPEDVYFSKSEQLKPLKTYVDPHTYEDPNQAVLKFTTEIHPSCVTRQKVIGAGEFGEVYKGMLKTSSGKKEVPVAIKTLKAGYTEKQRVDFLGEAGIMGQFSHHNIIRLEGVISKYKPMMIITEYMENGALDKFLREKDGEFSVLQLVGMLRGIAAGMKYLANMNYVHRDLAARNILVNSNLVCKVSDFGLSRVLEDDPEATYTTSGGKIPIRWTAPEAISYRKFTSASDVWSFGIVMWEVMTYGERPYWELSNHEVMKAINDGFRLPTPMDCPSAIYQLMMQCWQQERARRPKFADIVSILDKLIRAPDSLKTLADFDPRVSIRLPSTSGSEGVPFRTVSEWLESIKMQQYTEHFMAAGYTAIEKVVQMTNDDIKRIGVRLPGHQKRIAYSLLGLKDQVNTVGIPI

Assays:
[1] = target: T1, exogenous TGFBI expressed in 293T (human) (UniProt Q15582); assay: co-IP; exogenous TGFBI and EphA2 expressed in 293T cells; IP and immunoblot
T1 sequence: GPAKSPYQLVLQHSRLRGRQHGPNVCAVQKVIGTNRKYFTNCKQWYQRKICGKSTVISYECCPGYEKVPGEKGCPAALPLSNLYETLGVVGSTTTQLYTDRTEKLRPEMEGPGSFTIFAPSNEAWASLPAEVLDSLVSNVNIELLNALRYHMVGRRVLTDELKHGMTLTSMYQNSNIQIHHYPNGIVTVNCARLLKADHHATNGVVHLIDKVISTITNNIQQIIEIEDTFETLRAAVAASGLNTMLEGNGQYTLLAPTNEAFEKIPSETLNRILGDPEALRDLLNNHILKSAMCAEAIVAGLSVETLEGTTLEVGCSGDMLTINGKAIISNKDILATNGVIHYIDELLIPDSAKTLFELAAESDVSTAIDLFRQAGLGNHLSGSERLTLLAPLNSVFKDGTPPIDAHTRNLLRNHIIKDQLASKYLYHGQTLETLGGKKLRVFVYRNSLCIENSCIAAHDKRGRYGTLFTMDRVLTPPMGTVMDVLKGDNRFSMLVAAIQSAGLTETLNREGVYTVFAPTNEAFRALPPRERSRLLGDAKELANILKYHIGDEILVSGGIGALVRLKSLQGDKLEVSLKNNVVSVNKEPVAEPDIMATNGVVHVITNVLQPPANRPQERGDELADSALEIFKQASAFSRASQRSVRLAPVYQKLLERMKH

[2] = target: T2, transforming growth factor beta-induced protein (TGFBI), endogenous in GSCs (human (endogenous in T3691 GSCs)) (UniProt Q15582); assay: co-IP; endogenous proteins, GSC lysate (T3691, hypoxia) in Pierce IP Lysis Buffer; primary antibody or IgG control, protein A/G agarose overnight at 4°C; immunoblot
T2 sequence: T1 sequence

**Q.** Which binding [1] does the source give for “exogenous EphA2 expressed in 293T (from UniProt P29317 24-976) (receptor)” here?
**A.** The binding was “binds”.

**Q.** For “EphA2, endogenous in GSCs (from UniProt P29317 24-976) (receptor)”, which binding [2] is on record?
**A.** Its binding is “binds”.
